SMILES strings stand for the structures. The list shows a part of the results. The main result of the screen is listed elsewhere. These columns were measured beside it and carry no call. Compounds called inactive in the main read-out are mostly missing here. The note in brackets gives the kind of curve behind each potency; many fits are weak.

The text below walks through data of PubChem BioAssay AID2685 (National Center for Advancing Translational Sciences (NCATS), 2010).

A short description of this assay: qHTS Assay for Lipid Storage Modulators in Drosophila S3 Cells.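 As to cell number change: cells counted by Cell Tracker Red CMTPX staining in the red channel.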 Particulars: BODIPY lipid droplet fluorescence, 18-24 h; for cell number change: measured here: cell count max response, cells fed with added oleic acid. In outline: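 Laser-scanning cytometry quantifies lipid droplet accumulation (500–530 nm total intensity; droplet/cell object ratio) in oleic acid-fed (400 uM added) Drosophila S3 cells treated with a concentration series. 20 uM Triacsin C defined 100% inhibition.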
On the technique in general: qHTS replaces the single test concentration by a dilution series.

Setting [1] is: measured here: lipid fluorescence (Fed channel) AC50, cells fed with added oleic acid.
Where [2] appears, read: measured here: cell number channel AC50, cells fed with added oleic acid.

As for `COc1ccc(CCN(C(=O)c2ccco2)C(C(=O)NC2CCCC2)c2ccncc2)cc1OC` (stereo unspecified), the cell number change was -20.4%. The concentration at half-maximal activity (AC50) under setting [1] is 29100 nM [falling, single point].
Consider `COc1ccc(CCNC(=O)CCn2cccc2)cc1OC`, for which the cell number change is -0.41%. Further, under setting [1], the AC50 was 14600 nM [rising, single point].
In the case of `CC(=O)Nc1ccc(S(=O)(=O)NC2CC(=O)N(c3ccc(C)c(C)c3)C2)cc1` (stereo unspecified), the cell number change worked out at 64%. The concentration at half-maximal activity (AC50) under setting [2] is 13000 nM [rising, partial curve].
On to `CC(C)c1ccc2oc(-c3ccc(NC(=O)c4ncn[nH]4)cc3)nc2c1`, for which, under setting [2], the AC50 is 6510 nM [rising, single point].
As for `COc1cc(=O)[nH]c(SC(C)C(=O)Nc2cc(C)on2)n1` (stereo unspecified), the cell number change was -5%. In addition, under setting [1], the AC50 was 651 nM [falling, single point].
Take `O=C(CSc1cccs1)NCCc1ccccc1`: under setting [1], the concentration at half-maximal activity (AC50) was 116 nM [rising, full curve, poor fit].
As for `COc1ccc2cc(C#N)c(Nc3cccc(F)c3)nc2c1`, the cell number change is 29.5%.
Take `O=C(COC(=O)Cc1ccccc1[N+](=O)[O-])NNC(=O)c1ccc([N+](=O)[O-])cc1`: the cell number change turned out to be 18.2%. Moreover, the AC50 under setting [1] is 23100 nM [rising, single point].
`CN1CCc2c(sc(NC(=O)CS(=O)(=O)c3ccccc3)c2C(N)=O)C1`: the cell number change is -6.73%. Also, the concentration at half-maximal activity (AC50) under setting [2] is 73.1 nM [falling, full curve, poor fit].
On to `CCC(C)NC(=O)C1CCCN(C(=O)Nc2ccc(F)cc2)C1` (stereo unspecified), for which the cell number change is -0.97%.
For the compound `Cc1cc2c(cc1S(=O)(=O)Nc1cccc(C)c1C)n(C)c(=O)c(=O)n2C`, the AC50 under setting [1] is 1640 nM [falling, full curve].
With `COc1ccccc1NC(=O)CSc1nc(O)cc(=O)n1-c1ccccc1OC`, the cell number change was -5.75%. The AC50 under setting [1] is 130 nM [rising, full curve, poor fit].
With `COc1ccc(-n2c(C)nc3cc(C(=O)NCCN4CCOCC4)ccc32)cc1`, the cell number change was -7.55%. Besides, under setting [1], the AC50 was 4.61 nM [falling, full curve, poor fit].
For the compound `O=C(CN1C(=O)NC2(CCCCC2)C1=O)N1CCN(S(=O)(=O)c2ccc(Cl)s2)CC1`, the cell number change turned out to be 10%. In addition, the concentration at half-maximal activity (AC50) under setting [1] is 8200 nM [rising, partial curve].
Regarding `Cn1c(Cc2ccccc2)nnc1SCC(=O)Nc1ccc(N2CCOCC2)cc1`, the cell number change was -8.12%.
Still for that read-out and setting: then `COc1ccccc1NS(=O)(=O)c1cccc(C(=O)N2CCCCCC2)c1`, with 17.3%.
On to `CCCn1nc(C(=O)Nc2ccc3nc(C)sc3c2)c2ccccc2c1=O`, for which the AC50 runs as follows: under setting [2], 6510 nM [falling, single point]; under setting [1], 820 nM [rising, full curve, poor fit].
As for `Cc1ccc(C)c(N2N=C(C(=O)OCC(=O)N(C)c3ccccc3)CCC2=O)c1`, the cell number change is -31.3%.
On the same count and under the same terms, for `NC(N)=NC(N)=Nc1cccc2ccccc12` the value was 15.4%.
With `Cc1cc2c(cc1C)N(C(=O)CSC1=NCCS1)C(C)(C)c1ssc(=S)c1-2`, the cell number change is -66.8%. In addition, the half-maximal activity concentration (AC50) under setting [2] is 16400 nM [falling, partial curve, poor fit]. Moreover, the concentration at half-maximal activity (AC50) under setting [1] is 23100 nM [falling, partial curve].
As to `C=CCn1c(SCC(=O)Nc2ccc(C(=O)OCC)cc2)nnc1-c1sc(N)nc1C`, the cell number change was -16.4%. The AC50 under setting [1] is 1300 nM [rising, full curve].
In the case of `COc1cc(/C=C(\NC(C)=O)C(=O)NC(C)(C)C)ccc1OC(C)=O`, the cell number change worked out at 0.569%. In addition, the half-maximal activity concentration (AC50) under setting [2] is 1460 nM [falling, partial curve]. In addition, under setting [1], the AC50 is 1160 nM [falling, single point].
For the compound `CN(C)c1ccc(/C=C/C(=O)c2ccc3c(c2)OCO3)cc1`, the cell number change is -32.8%. The AC50 under setting [2] was 16400 nM [falling, single point]. Also, the AC50 under setting [1] is 7.31 nM [rising, full curve, poor fit].
Regarding `O=C(Cc1ccccc1F)NNC(=O)c1ccncc1`, the cell number change was found to be 3.47%. The concentration at half-maximal activity (AC50) under setting [1] was 1300 nM [falling, partial curve].
For the compound `COc1ccc(-c2cc(=O)oc3cc(OCC(=O)N4C[C@H]5C[C@@H](C4)c4cccc(=O)n4C5)ccc23)cc1`, the cell number change is -11.8%. The concentration at half-maximal activity (AC50) under setting [1] was 82 nM [falling, full curve, poor fit].
With `COc1ccc(Cl)cc1NC(=S)N1CCN(S(C)(=O)=O)CC1`, the cell number change is 0.117%. Further, the concentration at half-maximal activity (AC50) under setting [1] is 29100 nM [falling, single point].
Turning to `Cc1cc(C(=O)OC2CCOC2=O)c2ccccc2n1` (stereo unspecified), the cell number change was -17.7%. Further, the AC50 under setting [1] is 291 nM [falling, partial curve, poor fit].
Consider `Cc1ccc(C)c(OCC(=O)Nc2cc(NC(=O)COc3cc(C)ccc3C)cc(C(=O)O)c2)c1`, for which the cell number change is -22.5%.
Same read-out and setting: then `COc1ccc(-c2ccccc2NC(=O)C2CCCN(Cc3ccco3)C2)cc1` (stereo unspecified), with 19.6%.
As for `C/C(CC(=O)Nc1ccc(N(C)C)cc1)=N\NC(=O)C(=O)NCc1ccccc1`, the cell number change is 32.9%. Also, the AC50 under setting [2] is 2310 nM [rising, full curve, poor fit]. Also, under setting [1], the half-maximal activity concentration (AC50) was 18400 nM [rising, single point].
In the case of `O=C(CSc1nnc(Cc2ccccc2)o1)N1CCOCC1`, the cell number change is -32.2%. Besides, under setting [2], the AC50 was 13000 nM [falling, partial curve, poor fit].
For the compound `N#C/C(=C\c1ccc(O)c(O)c1)C(=O)NCc1ccccc1`, the cell number change was -1.13%. Further, the AC50 under setting [1] is 206 nM [falling, full curve, poor fit].
For `O=C(CNC(=O)c1ccco1)N/N=C/c1ccc(C(=O)O)cc1`, the cell number change is -15.2%. Besides, the half-maximal activity concentration (AC50) under setting [1] is 206 nM [rising, single point].
For `CCC1(c2ccccc2)NC(=O)N(CC(=O)Nc2ccc(N3CCCC3)cc2C)C1=O` (stereo unspecified), the cell number change came out at 36.9%. Moreover, the AC50 under setting [2] is 16400 nM [rising, single point]. The AC50 under setting [1] was 65.1 nM [rising, full curve, poor fit].
In the case of `O=C(CSc1nnc(-c2ccccc2F)n1CCc1ccccc1)Nc1ccc2[nH]c(=O)[nH]c2c1`, the cell number change was determined as 78.8%. In addition, under setting [2], the concentration at half-maximal activity (AC50) was 29100 nM [rising, single point]. Under setting [1], the AC50 was 29100 nM [rising, single point].
Regarding `O=C1C=C(c2ccc3c(c2)OCO3)C[C@@H](c2ccc3c(c2)OCO3)C1`, the cell number change is -0.113%. The AC50 under setting [1] is 23100 nM [rising, single point].
In the case of `O=C(c1ccccc1Br)N1CCc2c([nH]c3ccccc23)C1`, the cell number change was 23.9%. The half-maximal activity concentration (AC50) under setting [1] is 29100 nM [rising, single point].
Regarding `CNS(=O)(=O)c1cccc(C(=O)NCC(c2cccs2)N2CCOCC2)c1` (stereo unspecified), the cell number change was found to be 0.17%. Moreover, the concentration at half-maximal activity (AC50) under setting [1] is 4.61 nM [rising, full curve, poor fit].

As usually defined, the AC50 is the concentration at which the activity in the assay is half-maximal. Low readings indicate greater potency, high ones weaker potency.
